{
  "sequences": {"note": "The chains behind the UniProt entries cited, without tags or fusion partners. A line that says so, or that is headed by a name, gives the form on record, which may keep a tag or linker.", "UniProt P16109, with tags, fused parts or gaps limits assumed": "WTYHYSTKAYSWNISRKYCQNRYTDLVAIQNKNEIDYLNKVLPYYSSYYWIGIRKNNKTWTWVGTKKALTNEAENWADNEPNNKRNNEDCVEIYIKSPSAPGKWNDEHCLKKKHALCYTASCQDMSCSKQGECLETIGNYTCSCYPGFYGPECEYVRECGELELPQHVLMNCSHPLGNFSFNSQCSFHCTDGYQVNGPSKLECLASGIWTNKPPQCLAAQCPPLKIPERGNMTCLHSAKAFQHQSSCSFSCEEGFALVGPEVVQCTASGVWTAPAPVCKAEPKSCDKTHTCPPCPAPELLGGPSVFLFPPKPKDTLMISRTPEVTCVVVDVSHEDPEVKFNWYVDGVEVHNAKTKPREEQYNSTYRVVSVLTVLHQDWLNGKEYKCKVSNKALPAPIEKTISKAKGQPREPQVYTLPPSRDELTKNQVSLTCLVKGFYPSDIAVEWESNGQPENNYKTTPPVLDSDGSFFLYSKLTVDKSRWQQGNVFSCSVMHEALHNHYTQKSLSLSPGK"},
  "source": "patent US5565433A",
  "about": "“Sulfated β-glycolipid derivatives as cell adhesion inhibitors” (Bristol-Myers Squibb Company, priority 1996, dated 1996)",
  "key": {"P-selectin [1]": {"biological_target": "T1, P-selectin (Homo sapiens, UniProt P16109)", "T1 construct": "consists of the human lectin domain, the EGF domain, and two complement repeats of the human selectins; made in house", "assay": "HL-60 Cell Binding to P-selectin Rg", "type": "cell-based", "conditions": "HL-60 cells binding to P-selectin Rg coated wells", "description": "2. HL-60 Cell Binding to P- and E-Selectin RG\nReceptor globulin (Rg) Construction\nThe chimeric P-and E-selectin receptor globulin (Rg) consists of the human lectin domain, the EGF domain, and two complement repeats of the human selectins fused to the hinge, CH1 and CH2 domains of human IgG1. These proteins were prepared as described by Aruffo, et al., Cell (1991) 67: 35-44; Walz, et al., Science (1990) 250, 1132-1135.\nCell binding assay for Rg\nThe HL-60 cell line, obtained from the American Type Culture Collection, ATCC No. CCL240, was employed to investigate P-selectin Rg binding. Assays were done in 96-well tissue culture dishes. […] The fluorescence on the plate was quantitated using a fluorescent plate reader. Following subtraction of a blank representing the binding of cells to non-Rg containing wells (<5000 cells), the specific binding to P- or E- selectin was determined. […]\nTest compounds were prepared by dissolution to a final concentration of 20 mg/ml in dimethyl sulfoxide (DMSO), diluted in PBS to 2 mg/ml, and briefly sonicated prior to use. […] The data is obtained as percent inhibition of specific binding: [formula] and a plot of dose vs. percent inhibition of Rg binding is generated in which IC50 (μM) is calculated and reported in Table 1."}, "P-selectin [2]": {"biological_target": "T1, P-selectin", "assay": "P-Selectin Adhesion Receptor Binding: cell-free ELISA, inhibition of P-selectin binding to immobilized sulfatides", "conditions": "immobilized sulfatide, pH 8.0", "excerpt": "1. P-Selectin Adhesion Receptor Binding\nP-selectin (GMP140, granule membrane protein-140, PADGEM, or CD62) is a calcium-dependent transmembrane protein found in alpha granules of endothelial cells and platelets. It is an inducible selectin produced on activated endothelium and platelets which recognize alpha(2-3)sialylated and alpha(1-3)fucosylated lactosaminoglycans which include the sequence, Lewis x (Zhou et al., J. Cell. Biol., (1991) 115 (2): 557-564) and sulfatides (3-sulfated galactosyl ceramides, Aruffo, et al., Cell (1991) 67: 35-44). […]\n0.1 ml of sulfatide (SIGMA) or lysosulfatide (SIGMA) each at 1 μg/ml in MeOH were added to the wells of a 96-well ELISA plate (ProBind, Falcon) and allowed to dry overnight at room temperature. […] Bound complexes were detected by addition of substrate buffer (95 mM NaOAc.3H2 O, 5 mM citric acid monohydrate, 1.4 mM urea/H2O2) containing 3, 3', 5, 5' Tetramethylbenzidine (SIGMA). Reactions were stopped by the addition of 3N sulfuric acid and the absorbance read on an ELISA reader at dual wavelengths 450 and 630 nm. […] The data is obtained as percent inhibition of specific binding [formula] and a plot of dose vs. percent inhibition of Rg binding is generated in which IC50 (μM) is calculated and reported as cell free data in Table 1."}},
  "note": "The name of at least one read-out is uncertain.",
  "data": [
    {"smiles": "CCCCCCCCCCCCC/C=C/[C@@H](OC(=O)c1ccccc1)[C@H](CO[C@@H]1O[C@@H]2COC(c3ccccc3)O[C@@H]2[C@H](OS(=O)(=O)O)[C@H]1OS(=O)(=O)O)NC(=O)CCCCCCCCCCCCCCC", "note": "(stereo partly drawn) [Example 10, (2S,3R,4E)-3-Benzoyloxy-2-hexadecanoylamino-1-[2,3-di-O-(sodiumoxysulfonyl)-4,6-O-benzylidene-β-D-galactopyranosyloxy)-4-octadecene]", "values": [
      {"measurement": "IC50", "setting": "P-selectin [1]", "result": 10, "unit": "µM"},
      {"measurement": "IC50", "setting": "P-selectin [2]", "result": 0.1, "unit": "µM"}
    ]}
  ]
}
